Measured values taken from patent US20060128675A1, “Method for monitoring the effectiveness of teracycline in the treatment of asthma” (priority 2002, published 2006).
For some of these results: At least one structure is not confirmed: it was looked up by name or label, or the drawing left a doubt. Some results were stated once for a whole list of compounds, not compound by compound.

Tests used:
[1] = tested on: IgE production by stimulated PBMC from asthmatic subjects; assay: IgE production in vitro by anti-CD40 mAb + rhIL-4 stimulated PBMC from asthmatic subjects (IgE ELISA of supernatants); assay type: cell-based, human; settings: 10 ug/ml
Protocol: (§1) PBMC were separated from blood on a Ficoll-Paque (Pharmacia, Piscataway, N.J.) gradient (density 1.077). The PBMC were carefully removed using a transfer pipette (VWR Scientific, San Francisco, Calif.). Cells were washed twice in RPMI-1640 medium (GIBCO/BRL, Grand Island, N.Y.), resuspended in RPMI (3 ml), and counted on a hemocytometer (Fisher Scientific, Springfield, N.J.). Viability was >98%, as judged by trypan blue exclusion.
(§2) Studies of IgE responses induced in vitro were carried out according to the method of Sampson and Buckley in J. Immunol 1981, 127: 829-834. […]
(§3) For the in vitro quantitative determination of IgE content in cell culture supernatants, solid phase sandwich enzyme linked immunosorbent assays (ELISAs) were performed using IgE ELISA Test Kits (Abexon Trend, Ramsey, Minn.). […] Specimens were analyzed in duplicate and a standard curve was derived from known concentrations of IgE. Plates were read using an automated microplate reader (Model ELX800) (Bio-Tek Instruments, Inc., Winooski, Vt.), with a 450-nm measurement filter. […]

[2] = tested on: IgE production by PBMC from non asthmatic subjects; assay: IgE production in vitro by anti-CD40 mAb + rhIL-4 stimulated PBMC from non asthmatic subjects; assay type: cell-based, human; settings: non asthmatic PBMC with anti-CD40 mAb and rhIL-4; no change
Protocol: as §1, §2, §3

[3] = tested on: IgE production by PBMC from asthmatic or non asthmatic subjects; assay: IgE production by PBMC cultured with either anti-CD40 mAb or rhIL-4 alone; assay type: cell-based, human; settings: either anti-CD40 mAb or rhIL-4 alone in the presence of the drug
[4] = tested on: osteoarthritis (OA) in dogs; settings: cited from earlier work
[5] = tested on: delayed-type hypersensitivity responses; settings: mice; cited from earlier work
[6] = tested on: allergic steroid dependent asthmatic patients; settings: oral administration; cited from earlier work
[7] = tested on: rheumatoid arthritis (RA) patients; settings: cited from earlier work
[8] = tested on: human whole blood cultures; settings: physiological doses; cited from earlier work
[9] = tested on: inducible nitric oxide synthase (iNOS); settings: murine macrophages; cited from earlier work

Compound | suppression of day 10 IgE levels [1] [%] | IgE levels [2] [ng/mL] | IgE levels [3] [ng/mL] | severity of osteoarthritis [4] | delayed-type hypersensitivity responses [5] | asthma symptoms (A.M. and P.M.) [6] | oral corticosteroid requirements [6] | efficacy in early RA [7] | mitotic responses to phytohemagglutinin [8] | iNOS expression [9]
C[C@H]1c2cccc(O)c2C(=O)C2=C(O)[C@]3(O)C(=O)C(C(N)=O)=C(O)[C@@H](N(C)C)[C@@H]3[C@@H](O)[C@@H]21 [doxycycline] | > 80 | < 2.5 | < 2.5 | reduced the severity of osteoarthritis | inhibit the ability of mice to mount delayed-type hypersensitivity responses | – | – | – | – | –
CN(C)c1ccc(O)c2c1C[C@H]1C[C@H]3[C@H](N(C)C)C(O)=C(C(N)=O)C(=O)[C@@]3(O)C(O)=C1C2=O [minocycline] | > 80 | < 2.5 | < 2.5 | reduced the severity of osteoarthritis | – | improved their symptoms | decreased oral corticosteroid requirements | appears to be an effective therapy for early RA | inhibits mitotic responses to phytohemagglutinin | inhibits inducible nitric oxide synthase (iNOS) expression
CN(C)[C@@H]1C(O)=C(C(N)=O)C(=O)[C@@]2(O)C(O)=C3C(=O)c4c(O)cccc4[C@@](C)(O)[C@H]3C[C@@H]12 [tetracycline] | – | – | – | – | inhibit the ability of mice to mount delayed-type hypersensitivity responses | – | – | – | – | inhibits inducible nitric oxide synthase (iNOS) expression
